Entries after “also recorded” stand apart in the source; their conditions may differ. At least one compound was matched to its structure with a doubt left.
Assays:
Assay type in all cases: in vivo, BALB/c Nude mouse
[1] = test system: human A549 lung cancer xenografts; assay: Anti-cancer efficacy in nude mice carrying human A549 lung cancer xenografts (tumor volume, tumor weight, growth inhibition rate); details: for Tumor growth inhibitory effect, dose dependence: 150, 300, 600 mg/kg P.O., A549 xenografts in nude mice; for Tumor volume and size compared to the negative control group (G1): end of the observation period
Experimental: The anti-cancer efficacy of OKN-007 was assessed after oral administration in nude mice carrying human A549 lung cancer xenografts implanted subcutaneously in the flank. Human lung cancer cell line, A549 was used. […] The frozen cells were thawed in a water bath. Cells were placed in a tube containing the medium and centrifuged (1,000 rpm, 5 minutes) to discard the supernatant. After re-suspending with the culture medium, cells were placed in a cell culture flask and incubated in a 5% CO2 incubator at 37° C. Cells were sub-cultured at a ratio of 1:5 when grown with confluency of 70-80% in the culture container. Cells cultured on the day of cell line transplantation were centrifuged (1,000 rpm, 5 minutes) to discard the supernatant and to make cell suspension with D-PB S. Then, the cell suspension was mixed with Matrigel at a ratio of 1:1 (5×10^7 cells/mL). BALB/c Nude mouse, [NT]-Foxnlnu/CrlOri, SPF was used. Sex, number, age, and body weight range of animals at receipt: The mice (65 mice) were male, 5 weeks old, and had about 14.5-19.6 g weight at the receipt. Cell transplantation: After the quarantine-acclimation period, the body weight measurement and cell transplantation in healthy animals were performed. […] Prepared cell (1×10^7 cells/0.2 mL) suspension was injected subcutaneously into the right flank with disposable syringes. […] Group assignment: After transplanting cells, each tumor size was monitored for 65 animals. When tumor volume reached within 87-112 mm^3, 50 animals were assigned to the respective groups with an average tumor volume of about 99 mm^3. Based on the tumor volume, animals were selected and randomly distributed into 5 groups (10 animals/group). Dosing Route: Oral administration. The route of administration was oral because the clinical application of the test substance is oral. Method and frequency of administration: For negative control and test substance, oral administration was performed once a day for 4 weeks for a total of 28 times using a disposable syringe. For positive control, intraperitoneal administration was performed once a week for 4 weeks for a total of 4 times using a disposable syringe. Dosing Route: The dose levels of the test substance were selected at 150, 300, and 600 mg/kg. The dose level of the positive substance was selected at 2 mg/kg. The dose volume was selected at 10 mL/kg for all groups, and the individual dose was calculated based on the bodyweight of animals just prior to dosing. Measurement of tumor volume: The largest diameter (a) and the smallest diameter (b) of each tumor were measured using calipers twice a week during the observation period. The tumor volume (TV) was calculated twice a week according to the following formula: TV (mm^3)=(a (mm)×b^2 (mm^2))/2. The volume of a tumor before administration to each animal was set to the value measured at the time of group assignment. Tumor removal and measurement of body weight: After the observation period, animals were anesthetized by inhalation of isoflurane. After the tumor was extracted, the weight of the removed tumor was recorded. The tumor growth inhibition rate (IR) was calculated using the following formula: IR (%)=(1-T/C)×100, where T is a mean tumor weight in the test substance group, and positive substance group, and C is a mean tumor weight in the negative control group.

[2] = test system: human A549 lung cancer xenografts; assay: Hematoxylin & Eosin (H&E) staining of extracted A549 xenograft tumors (necrosis grading); details: G2, G3 and G4 (150, 300, 600 mg/kg)
From the text: Histopathological test: The extracted tumors were fixed in 10% neutral buffered formalin solution (10% neutral buffered formalin). After sectioning the tumors to a certain thickness (about 3 mm), those were subjected to the general preparation procedure, embedded in paraffin, cut into 4 to 5 μm size, and tissue sections were stained with Hematoxylin and Eosin (H&E) and TUNEL. IHC (Immunohistochemistry) slides, cut into 4 to 5 μm size, were produced and sent to the sponsor (Negative Control Group (G1), Test substance 2 (G3, Animal ID Nos.: 1301, 1302, 1303, 1307, 1310), Test substance 3 (G4, Animal ID Nos.: 1401, 1402, 1404, 1408, 1409)). Determination of Hematoxylin & Eosin (H&E) staining results: Necrosis of tumors was assessed by grading (±, +, ++, +++, ++++) the extent of necrosis in the whole section of the tumor. Necrosis was evaluated by morphological changes such as collapse or disappearance of the nucleus and eosinophilic change of cytoplasm. The extent of tumor necrosis was determined by the percentage of the following necrosis area. Histopathological test (Table 7, FIGS. 7-11): The extracted fixed tumor was cut to a certain thickness (about 3 mm), then subjected to general tissue treatment, paraffin-embedded to produce blocks, and tissue sections of 4 to 5 μm in size were prepared. Then, Hematoxylin & Eosin (H&E) staining and TUNEL staining were performed.

[3] = test system: human A549 lung cancer xenografts; assay: TUNEL staining of extracted A549 xenograft tumors (apoptosis counting and grading)
From the text: Histopathological test: The extracted tumors were fixed in 10% neutral buffered formalin solution (10% neutral buffered formalin). After sectioning the tumors to a certain thickness (about 3 mm), those were subjected to the general preparation procedure, embedded in paraffin, cut into 4 to 5 μm size, and tissue sections were stained with Hematoxylin and Eosin (H&E) and TUNEL. IHC (Immunohistochemistry) slides, cut into 4 to 5 μm size, were produced and sent to the sponsor (Negative Control Group (G1), Test substance 2 (G3, Animal ID Nos.: 1301, 1302, 1303, 1307, 1310), Test substance 3 (G4, Animal ID Nos.: 1401, 1402, 1404, 1408, 1409)). Determination of TUNEL staining results: After histological examination of the entire cross-section of the tumor for grading (±, +, ++, +++, ++++) of apoptosis, the nucleated brown stained cells were read as […] was counted. The apoptosis of the tumor was determined by the number of positive cells per […] (1 mm^2). The apoptosis of the tumor was determined by calculating the average number of positive cells and graded into the corresponding severity. The number of positive cells in which apoptosis occurred was determined by counting the number of positive cells per unit area (1 mm^2). Histopathological test (Table 7, FIGS. 7-11): The extracted fixed tumor was cut to a certain thickness (about 3 mm), then subjected to general tissue treatment, paraffin-embedded to produce blocks, and tissue sections of 4 to 5 μm in size were prepared. Then, Hematoxylin & Eosin (H&E) staining and TUNEL staining were performed.

## CC(C)(C)/[N+]([O-])=C/c1ccc(S(=O)(=O)O)cc1S(=O)(=O)O [OKN-007, Disodium 4-[(Z)-[tert-butyl(oxido)azaniumylidene]methyl]benzene-1,3-disulfonate]
[1]
  Tumor growth inhibitory effect, dose dependence: dose-dependent inhibitory effect
[1]; listed as test substance
  Tumor growth inhibitory effect, dose dependence: dose-dependent
[1]; G2, 150 mg/kg
  Tumor volume and size compared to the negative control group (G1): statistically significant decrease in tumor volume and size
[1]; G3, 300 mg/kg
  Tumor volume and size compared to the negative control group (G1): statistically significant decrease in tumor volume and size
[1]; G4, 600 mg/kg
  Tumor volume and size compared to the negative control group (G1): statistically significant decrease in tumor volume and size
[2]
  Severity of necrosis compared to the negative control group (G1): does not significantly different
[3]; G2, 150 mg/kg
  Number of apoptotic cells in the tumor compared to the negative control group (G1): statistically significant difference; also recorded: significant increase in the number of apoptotic cells
[3]; G3, 300 mg/kg
  Number of apoptotic cells in the tumor compared to the negative control group (G1): statistically significant difference; also recorded: significant increase in the number of apoptotic cells
[3]; G4, 600 mg/kg
  Number of apoptotic cells in the tumor compared to the negative control group (G1): statistically significant difference; also recorded: significant increase in the number of apoptotic cells
